Experimental data taken from PubChem BioAssay AID2685 (National Center for Advancing Translational Sciences (NCATS), 2010).
The list shows a part of the results. These are further read-outs of the screen, such as a control signal, another cell line or another target. No call is given for them. Most of these compounds were active or inconclusive in the main read-out, so they are no random draw. Potencies come from curve fits of mixed quality, noted in brackets.

Assay: qHTS Assay for Lipid Storage Modulators in Drosophila S3 Cells;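 for cell number change: cells counted by Cell Tracker Red CMTPX staining in the red channel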
Conditions: BODIPY lipid droplet fluorescence, 18-24 h; for cell number change: measured here: cell count max response, cells fed with added oleic acid
How it was run: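 Drosophila S3 cells loaded with oleic acid (400 uM, as added) and compounds at several concentrations; lipid droplets imaged by 488-nm laser-scanning cytometry, 500–530 nm intensity and object ratio to cell channel. Percent activity normalized to 20 uM Triacsin C.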

[1] = measured here: cell number channel AC50, cells fed with added oleic acid
[2] = measured here: lipid fluorescence (Fed channel) AC50, cells fed with added oleic acid

Compound | cell number change [%] | AC50 [1] | AC50 [2]
Cc1ccc(CNC(=O)C2CCCN(S(=O)(=O)c3c(C)[nH]c(=O)[nH]c3=O)C2)cc1 (stereo not given) | 32 | 18.4 µM [rising, single point] | 5.8 µM [rising, full curve]
Cc1[nH]nc(-c2ccc(OCc3cnn(-c4ccccc4)c3)cc2O)c1Oc1ccccc1F | 24.1 | – | –
Cc1cc(C)nc(Nc2ccc(N3CCCC3)cc2)n1 | 1.56 | – | –
COc1cc(S(=O)(=O)Nc2cccc(C(=O)O)c2)c(OC)cc1Cl | -133 | 6.51 µM [falling, partial curve] | 29.1 µM [falling, single point]
CCCSc1nnc(NC(=O)CCc2ccccc2)s1 | 2.75 | – | 6.51 µM [rising, single point]
CCOC(=O)CN(C(=O)CSc1nnc(CNc2ccc(F)cc2)o1)c1ccccc1 | -2.52 | – | 14.6 µM [rising, single point]
Cn1c(SCC(=O)N2CC(=O)Nc3ccccc32)nc2ccccc2c1=O | 8.4 | 0.0184 µM [rising, full curve, poor fit] | 0.0058 µM [rising, full curve]
COc1cc2c(cc1OC)[C@H](C)N(C(=S)Nc1ccc(F)cc1)CC2 | 29.5 | – | 8.2 µM [rising, partial curve]
CCOC(=O)/C(=N\Nc1ncnc2ccccc12)c1ccc(C)cc1 | -11.8 | – | 6.31 µM [rising, single point]
COc1ccc(-c2noc(CN(C(=O)c3cccs3)C(C)C)n2)cc1 | 6.18 | – | 3.26 µM [falling, partial curve, poor fit]
CC(C)(C)CN1C(=O)C(=O)NC[C@@H]1Cc1ccc(O)cc1 | -22.3 | – | 0.58 µM [falling, full curve]
O=C(Nc1ccc(OC(F)(F)C(F)F)c(NC(=O)c2cccc(F)c2)c1)c1cccc(F)c1 | 9.94 | – | 29.1 µM [rising, single point]
O=C(COc1ccc(Cl)cc1Br)NC1CC1 | -11.8 | – | 32.6 µM [rising, single point]
COc1cccc(NC(=O)c2ccc3c(c2)C(=O)N(CC2CCCO2)C3=O)c1 (stereo not given) | -6.73 | – | 10.3 µM [falling, partial curve, poor fit]
Cc1ccc(CN(Cc2ccccn2)C(=O)Nc2ccc(C)c(C)c2)cc1 | 19.7 | – | 18.4 µM [rising, single point]
Cc1cccc(C)c1NCc1n[nH]c(=S)n1-c1ccccc1 | 9.55 | 6.51 µM [falling, single point] | 6.51 µM [falling, single point]
COc1ccccc1C(=O)N=Nc1c(O)[nH]c2ccc([N+](=O)[O-])cc12 | -66.2 | 29.1 µM [falling, single point] | –
CCC(=O)Nc1c(-c2ccccc2Cl)c(=O)c2ccccc2n1C | -32.4 | – | 20.6 µM [falling, single point]
CC(=O)N1c2ccc(S(=O)(=O)N3CCCCC3)cc2CC1C(=O)Nc1cccc(C)c1 (stereo not given) | 8.55 | – | 0.651 µM [rising, single point]
CCCc1ccc(C(=O)/C=C/N(C)C)cc1 | -3.41 | – | 4.11 µM [rising, single point]

Single records, as listed above.
CCOC(=O)CN(C(=O)CSc1nnc(CNc2ccc(F)cc2)o1)c1ccccc1 reads cell number change [%]: -2.52; AC50 [2]: 14.6 µM [rising, single point]
O=C(COc1ccc(Cl)cc1Br)NC1CC1 reads cell number change [%]: -11.8; AC50 [2]: 32.6 µM [rising, single point]

Next records.

Compound | cell number change [%] | AC50 [1] | AC50 [2]
CCOC(=O)c1c(C)[nH]c(C(=O)OCC(=O)c2ccccc2)c1C | 48.2 | 29.1 µM [rising, single point] | 25.9 µM [rising, partial curve]
COc1cc(/C=N/Nc2nc(C)nc3c2cnn3-c2ccccc2)ccc1O | -10 | – | 0.184 µM [rising, full curve, poor fit]
CCN(CC)C(=O)C1CCN(CC2CC=CCC2)CC1 (stereo not given) | -95.2 | 25.9 µM [falling, partial curve] | –
NNC(=O)c1sc(-c2ccc(Cl)cc2)cc1N | -8.8 | – | –
CC(=O)Nc1ccc(S[C@@H](CCN2CC[C@H](C(C)(C)C)CCC2=O)c2ccccc2)cc1 | 1.72 | 6.51 µM [falling, single point] | 6.51 µM [falling, single point]
COC(=O)[C@]1(C)N[C@H](c2ccc(SC3CCCCC3)c(OC)c2)[C@@H]2C(=O)N(C)C(=O)[C@@H]21 | 19.3 | – | 0.366 µM [rising, full curve, poor fit]
C=CCNC(=S)N/N=C/c1ccc(C)s1 | -18.8 | – | 20.6 µM [falling, single point]
CCCc1cc(=O)[nH]c(SCC(=O)Nc2cc3c(cc2C(C)=O)OCO3)n1 | -5.25 | – | 29.1 µM [rising, single point]
CCC(C)[C@H](NC(=O)N1CC(=O)Nc2ccccc21)C(=O)N[C@H](C(=O)O)c1ccccc1 (stereo not given in full) | -65.3 | 18.4 µM [falling, partial curve] | 1.16 µM [falling, full curve, poor fit]
COc1ccc2[nH]c(C)c(C(=O)CN(C)C)c2c1 | -18.3 | – | 0.651 µM [falling, single point]
O=C(c1cnc2sccn2c1=O)N1CCCc2ccccc21 | -2.35 | 0.103 µM [falling, full curve, poor fit] | –
O=C(CSc1nnc(-c2ccncc2)o1)NC1C2CC3CC(C2)CC1C3 (stereo not given) | 8.78 | – | 29.1 µM [falling, single point]
O=C(NNC(=O)c1ccccc1[N+](=O)[O-])c1csc(N2CCOCC2)n1 | -2.83 | – | 0.0259 µM [rising, full curve, poor fit]
Cc1nc2ncnn2c(N2CCCC(C(=O)Nc3ccc4c(c3)CCC4)C2)c1C (stereo not given) | -33.6 | 10.3 µM [falling, partial curve, poor fit] | 0.146 µM [rising, full curve, poor fit]
CCCCC(CC)C(=O)Nc1cccc(SC)c1 (stereo not given) | 4.23 | – | 2.91 µM [falling, single point]
Cc1cc2c(C)c(C)c(=O)[nH]c2cc1N | 28.1 | – | 0.13 µM [rising, full curve, poor fit]
COCCN1C(=O)N(c2ccc(OC)cc2)C(=O)C1CC(=O)Nc1cccc(F)c1 (stereo not given) | 6.32 | – | 18.4 µM [rising, single point]
COc1ccc(CC2SC(=Nc3ccc(F)cc3)NC2=O)cc1 (stereo not given) | -10.5 | – | 29.1 µM [falling, single point]
COC(=O)c1c(C(=O)OC)n(CCCN)c2ccc(C)cc12 | 34.6 | 29.1 µM [rising, single point] | 25.9 µM [rising, single point]
CCOc1ccc(N/C=C/C(=O)c2ccc(OC)c(OC)c2)cc1 | -15.9 | – | –

Shown tab-delimited: two of the compounds above
Compound	cell number change [%]	AC50 [1]	AC50 [2]
CCN(CC)C(=O)C1CCN(CC2CC=CCC2)CC1 (stereo not given)	-95.2	25.9 µM [falling, partial curve]	–
NNC(=O)c1sc(-c2ccc(Cl)cc2)cc1N	-8.8	–	–

(more compounds)

Compound | cell number change [%] | AC50 [1] | AC50 [2]
COc1ccc([N+](=O)[O-])cc1NC(=O)C(C)N1CCCC1 (stereo not given) | 3.17 | – | –
O=C(Cc1cccs1)Nc1nc(-c2ccc(F)cc2F)cs1 | -25.5 | – | 0.651 µM [rising, full curve]
Cc1nnc(SCC(=O)Nc2cccc(N)c2)n1-c1ccccc1 | 17.9 | – | 7.31 µM [rising, partial curve]
CCOC(=O)c1cc(NC(=O)C2CCCO2)cc(C(=O)OCC)c1 (stereo not given) | 30 | 32.6 µM [rising, single point] | –
O=C(Oc1cc(Cl)ccc1Cl)c1ccc(N2CCOCC2)c([N+](=O)[O-])c1 | 39.4 | 29.1 µM [rising, single point] | 29.1 µM [rising, single point]
O=C(O)CC/C(=N/Nc1ncc(C(F)(F)F)cc1Cl)C(=O)O | 7.01 | 0.00651 µM [rising, full curve, poor fit] | –
CC(C)(C)c1cc(CCC(=O)NNC(=O)c2ccncc2)cc(C(C)(C)C)c1O | 8.9 | – | –
CCCC[N+](CC#Cc1ccccc1)(CCCC)CCCS(=O)(=O)[O-] | -6.88 | – | –
COc1ccc(-n2nnnc2-c2cccc(OC)c2)cc1 | 26.7 | – | 4.11 µM [rising, partial curve]
CCn1c(SCC(=O)c2ccc3c(c2)Cc2ccccc2-3)nnc1-c1ccc(N)cc1 | -22.9 | – | 29.1 µM [falling, single point]
COCC(=O)Nc1ncc(S(=O)(=O)c2ccc([N+](=O)[O-])cc2)s1 | -1.49 | – | 13 µM [falling, partial curve]
COCC(C)n1c(C)cc(C(=O)CSc2ccc(NC(C)=O)cc2)c1C (stereo not given) | 44.7 | 9.2 µM [rising, partial curve] | –
O=C(CN1C(=O)NC2(CCc3ccccc32)C1=O)c1ccc(Br)s1 (stereo not given) | – | – | 3.66 µM [falling, full curve]
c1ccc(C2=Nc3ccccc3NC(c3ccccc3)C2)cc1 (stereo not given) | 4.88 | 6.51 µM [falling, single point] | 29.1 µM [rising, single point]
O=C(N/N=C/C=C\c1ccccc1[N+](=O)[O-])c1cc(-c2ccccc2)nc2ccccc12 | 11.7 | – | 9.2 µM [rising, partial curve, poor fit]
COc1ccc(N2CCN(C(=O)COc3ccc(S(=O)(=O)N4CCOCC4)cc3C)CC2)cc1 | 30.3 | – | 0.058 µM [falling, full curve, poor fit]
Cc1cc2cc(CNC(=O)CCC(=O)O)ccc2[nH]1 | 1.49 | – | –
C=CCn1c(SCCC#N)nnc1-c1ccncc1 | 25.8 | – | 3.26 µM [rising, single point]
CCS(=O)(=O)c1ccc(O)c(NC(=O)c2cc(OC)c(OC)c(OC)c2)c1 | -16.6 | – | 4.11 µM [rising, partial curve, poor fit]
